Measured values as given in article PMC8133776.
These are yes or no findings as the source states them, for the method shown. Binding seen in cells or lysates may run through a third protein. Some binding calls cover weakened binding; strength is not graded here. Where a sequence is shown, tags or fusion partners need not be part of it. One block for each molecule: values may come before it.

The chains behind the UniProt entries cited, without tags or fusion partners.
UniProt Q9U1H9: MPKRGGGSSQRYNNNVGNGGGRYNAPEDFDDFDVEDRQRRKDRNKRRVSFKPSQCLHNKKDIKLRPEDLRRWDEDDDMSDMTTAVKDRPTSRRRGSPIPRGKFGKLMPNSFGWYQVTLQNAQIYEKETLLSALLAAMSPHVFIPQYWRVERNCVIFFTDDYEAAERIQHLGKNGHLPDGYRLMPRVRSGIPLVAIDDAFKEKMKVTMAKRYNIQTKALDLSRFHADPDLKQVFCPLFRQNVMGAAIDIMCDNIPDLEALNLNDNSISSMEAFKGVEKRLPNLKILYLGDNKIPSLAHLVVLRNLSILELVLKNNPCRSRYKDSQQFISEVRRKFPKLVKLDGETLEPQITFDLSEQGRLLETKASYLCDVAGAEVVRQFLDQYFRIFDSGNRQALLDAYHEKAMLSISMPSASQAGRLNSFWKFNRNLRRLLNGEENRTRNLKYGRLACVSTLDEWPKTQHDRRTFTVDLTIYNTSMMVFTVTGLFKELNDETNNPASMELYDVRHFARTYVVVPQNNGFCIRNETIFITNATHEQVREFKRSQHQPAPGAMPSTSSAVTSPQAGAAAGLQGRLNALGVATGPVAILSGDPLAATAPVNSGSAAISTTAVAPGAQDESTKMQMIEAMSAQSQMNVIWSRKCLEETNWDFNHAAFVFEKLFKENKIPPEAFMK

Tests used:
[1] = target: T1, 3xFLAG-tagged Nup54 (Drosophila melanogaster) (UniProt Q9V6B9); assay: co-IP; S2 cells transfected with 3xFLAG- and HA-tagged constructs, lysed after 48 hr in Pierce IP lysis buffer; anti-FLAG M2 magnetic beads overnight at 4°C, washes 3 x 15 min in TBS; western blot
T1 sequence: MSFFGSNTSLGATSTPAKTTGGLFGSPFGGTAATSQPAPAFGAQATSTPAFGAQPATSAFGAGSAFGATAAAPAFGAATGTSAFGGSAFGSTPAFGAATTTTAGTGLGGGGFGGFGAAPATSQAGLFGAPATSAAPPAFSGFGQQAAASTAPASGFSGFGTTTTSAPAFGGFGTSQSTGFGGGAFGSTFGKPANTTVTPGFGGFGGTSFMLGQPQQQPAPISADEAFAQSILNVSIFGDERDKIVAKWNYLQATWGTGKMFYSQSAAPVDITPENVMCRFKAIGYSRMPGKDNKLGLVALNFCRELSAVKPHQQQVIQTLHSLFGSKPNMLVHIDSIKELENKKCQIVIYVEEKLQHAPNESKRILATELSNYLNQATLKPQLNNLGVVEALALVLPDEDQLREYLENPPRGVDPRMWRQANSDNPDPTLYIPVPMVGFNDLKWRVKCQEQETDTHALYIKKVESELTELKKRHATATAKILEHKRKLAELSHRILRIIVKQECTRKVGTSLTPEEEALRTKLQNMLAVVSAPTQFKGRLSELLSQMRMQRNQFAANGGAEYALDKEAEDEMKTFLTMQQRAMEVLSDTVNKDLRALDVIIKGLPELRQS

[2] = target: T2, 3xFLAG-tagged Nup58 (Drosophila melanogaster) (UniProt Q9VDV3); assay: as above
T2 sequence: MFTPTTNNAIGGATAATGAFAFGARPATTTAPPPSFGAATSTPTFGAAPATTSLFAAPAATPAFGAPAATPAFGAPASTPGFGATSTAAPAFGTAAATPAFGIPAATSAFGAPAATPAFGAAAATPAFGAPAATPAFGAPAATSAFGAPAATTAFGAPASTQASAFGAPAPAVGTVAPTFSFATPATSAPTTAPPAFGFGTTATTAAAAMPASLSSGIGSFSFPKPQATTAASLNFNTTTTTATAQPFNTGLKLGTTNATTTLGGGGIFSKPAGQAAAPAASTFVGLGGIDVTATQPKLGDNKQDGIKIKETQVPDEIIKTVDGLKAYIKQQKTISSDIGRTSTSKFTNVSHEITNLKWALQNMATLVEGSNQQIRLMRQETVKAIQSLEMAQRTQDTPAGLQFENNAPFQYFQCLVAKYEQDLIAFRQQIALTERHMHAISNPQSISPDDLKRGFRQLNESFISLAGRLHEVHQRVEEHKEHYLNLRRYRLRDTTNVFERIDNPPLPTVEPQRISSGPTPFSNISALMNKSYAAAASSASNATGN

binding [1]: binds
binding [2]: binds
Molecule: HA-tagged Nxf1 (from UniProt Q9U1H9 1-672)

binding [1]: binds
B1: HA-tagged FL Nup58 (protein, UniProt Q9VDV3 1-546)
chain: T2 sequence

binding [2]: binds
B2: HA-tagged FL Nup54 (protein, UniProt Q9V6B9 1-610)
chain: T1 sequence
